PubChem BioAssay AID1259307, Sanger Institute – 2017
The whole screen tested 794 reagents; shown is a random part of them. In the full data, 15 (1.9%) got an active call. 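Calls reflect lethality without any drug; synergy scores did not enter the calls.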 Further read-outs or replicates are left out here. Not given: the amount of reagent, the time to read-out.

Screen: 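Identify kinases needed for SW620 growth or enhancing BYL719, cetuximab or trametinib effects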 (primary screen)
Cells: SW620 colorectal cancer cells
Knock-down reagent: siRNA pool against human genes
Conditions: anchor drugs BYL719 at 1 µM, cetuximab at 5 µg/ml or trametinib at 10 nM, each beside a DMSO vehicle arm
Measured: 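Per-well viability versus non-targeting control pool, replicate-averaged, robust z-score from controls; synergy scores for BYL719 1 µM, cetuximab 5 µg/ml, trametinib 10 nM against DMSO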
Scale: viability robust z-score, no drug: higher = more viable cells
Hit rule: 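Essential when the viability robust z-score without drug is under -3; synergy scores are ignored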
Meaning of the calls: active = essential (lethal alone); inactive = no change alone

MASTL (microtubule associated serine/threonine kinase like) gave viability robust z-score, no drug 0.736; inactive.
Silencing of WEE1 (WEE1 G2 checkpoint kinase) gave: viability robust z-score, no drug -0.584; inactive.
For MAPK9 (mitogen-activated protein kinase 9) the deposit lists viability robust z-score, no drug 0.221; inactive.
With knock-down of STK26 (serine/threonine kinase 26), the record shows viability robust z-score, no drug 0.694; inactive.
Depletion of ATM (ATM serine/threonine kinase) came out at: viability robust z-score, no drug -0.858; inactive.

In a second layout: entries from further up.
MAPK9 (mitogen-activated protein kinase 9)
- viability robust z-score, no drug: 0.221
- activity call: inactive

STK26 (serine/threonine kinase 26)
- viability robust z-score, no drug: 0.694
- activity call: inactive

Continued.
For MST1R (macrophage stimulating 1 receptor), the entry reads viability robust z-score, no drug 0.736; inactive.
Against RBM10 (RNA binding motif protein 10) the deposit lists viability robust z-score, no drug -2.04; inactive.
Depletion of TJP2 (tight junction protein 2) came out at: viability robust z-score, no drug -1.61; inactive.
NEK2 (NIMA related kinase 2) gave viability robust z-score, no drug 0.736; inactive.
For RAF1 (Raf-1 proto-oncogene, serine/threonine kinase), the values are viability robust z-score, no drug -1.16; inactive.
For TYK2 (tyrosine kinase 2), the entry reads viability robust z-score, no drug -0.209; inactive.
PGK1 (phosphoglycerate kinase 1) gave viability robust z-score, no drug -3.04; active.
